# Laboratory results from patent publication US6426355B1, “Heterocyclic carboxamide-containing thiourea inhibitors of herpes viruses containing phenylenediamine group” (American Home Products, priority 1998, dated 2002).
# At least one structure is not confirmed: it was looked up by name or label, or the drawing left a doubt.
# Test system: HCMV recombinant mutant virus (RV145)
# Test: HCMV microtiter plate assay (beta-glucuronidase reporter)
# Assay type: cell-based, Human Cytomegalovirus
# Conditions: HCMV in human foreskin fibroblasts
# From the text: Ninety-six well plate cultures of human foreskin fibroblasts are infected in the presence of inhibitor compound with a HCMV recombinant mutant virus whose genome contains the prokaryotic beta-glucuronidase gene (Jefferson, R. A., S. M. Burgess, and D. Hirsh. 1986. Beta-glucuronidase from Escherichia coli as a gene fusion marker. Proc. Natl. Acad. Sci. USA 83:8447-8451) whose expression is controlled by a viral promoter. An example of such a virus is RV145 (Jones, T. R., V. P. Muzithras, and Y. Gluzman. 1991. Replacement mutagenesis of the human cytomegalovirus genome: US10 and US11 gene products are nonessential. J. Virol. 65:5860-5872). Since it is under the control of a viral promoter, beta-glucuronidase expression is an indirect indicator of growth and replication of HCMV in this assay. At 96 hours post-infection, the infected cell lysates are prepared (using 50 mM sodium phosphate [pH7.0] containing 0.1% Triton X-100 and 0.1% sarkosyl) and assayed for beta-glucuronidase activity using a substrate for the enzyme which when cleaved yields either a product which can be measured colorimetrically in a spectrophotometer or fluorescently in a microfluorimeter. Examples of such substrates are p-nitrophenyl-beta-D-glucuronide and methylumbelliferylglucuronide, respectively. […]
compound,measurement,value
O=C(Nc1ccc(NC(=S)NCc2ccc3c(c2)OCO3)cc1)c1ccco1 [Example 546],IC50 (ug/ml) HCMV,0007 µg/mL
